From article PMC2821298
Results are given in words; binding and its absence hold for the method and conditions named. Some results given as binding are weak or reduced against the parent protein; the word gives no strength.

Protein sequences, listed by entry. Tags and fused reporters are not part of them. Lines headed by an entry give the natural chain unless they say otherwise; changes in a name come on top. Residues count along the entry.
UniProt P48356, residues 22-1162: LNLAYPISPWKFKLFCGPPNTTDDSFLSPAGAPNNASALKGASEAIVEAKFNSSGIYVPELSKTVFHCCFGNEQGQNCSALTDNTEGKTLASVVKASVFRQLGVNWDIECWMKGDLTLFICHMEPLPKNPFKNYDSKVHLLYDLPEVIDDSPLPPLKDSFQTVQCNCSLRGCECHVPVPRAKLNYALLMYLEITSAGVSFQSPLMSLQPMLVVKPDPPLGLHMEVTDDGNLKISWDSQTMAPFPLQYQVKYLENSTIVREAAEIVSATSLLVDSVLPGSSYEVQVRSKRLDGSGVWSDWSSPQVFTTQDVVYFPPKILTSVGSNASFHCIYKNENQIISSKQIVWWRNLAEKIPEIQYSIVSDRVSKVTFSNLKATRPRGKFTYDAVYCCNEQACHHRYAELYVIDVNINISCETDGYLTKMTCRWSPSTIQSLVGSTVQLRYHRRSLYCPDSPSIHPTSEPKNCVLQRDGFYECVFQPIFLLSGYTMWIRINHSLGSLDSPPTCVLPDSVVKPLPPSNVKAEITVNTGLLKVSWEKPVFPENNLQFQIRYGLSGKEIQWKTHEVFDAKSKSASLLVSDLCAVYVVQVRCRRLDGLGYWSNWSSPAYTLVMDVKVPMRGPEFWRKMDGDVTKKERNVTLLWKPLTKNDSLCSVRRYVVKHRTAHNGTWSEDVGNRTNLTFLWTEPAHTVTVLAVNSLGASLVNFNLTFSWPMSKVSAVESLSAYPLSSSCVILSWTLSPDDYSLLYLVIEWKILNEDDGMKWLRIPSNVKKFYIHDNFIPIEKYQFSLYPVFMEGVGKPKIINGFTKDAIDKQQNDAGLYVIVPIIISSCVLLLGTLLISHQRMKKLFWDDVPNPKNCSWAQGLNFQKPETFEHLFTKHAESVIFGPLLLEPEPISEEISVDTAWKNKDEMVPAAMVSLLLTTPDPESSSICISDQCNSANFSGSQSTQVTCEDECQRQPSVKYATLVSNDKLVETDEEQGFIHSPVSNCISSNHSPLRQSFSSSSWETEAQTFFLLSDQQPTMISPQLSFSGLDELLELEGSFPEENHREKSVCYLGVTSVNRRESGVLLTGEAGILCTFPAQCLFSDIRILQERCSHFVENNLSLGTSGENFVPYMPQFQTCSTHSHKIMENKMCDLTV
UniProt P41160, residues 22-167: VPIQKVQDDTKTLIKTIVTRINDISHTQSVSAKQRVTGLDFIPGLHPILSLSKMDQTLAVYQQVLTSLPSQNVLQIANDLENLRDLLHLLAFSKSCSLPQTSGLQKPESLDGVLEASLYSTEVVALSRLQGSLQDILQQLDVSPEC

Target: leptin receptor, long isoform (LEPRb), wild type (mouse) (UniProt P48356)
Assay: binding of leptin-SEAP to cells (bound phosphatase activity, chemoluminescence); leptin-SEAP on RINm5F cells stably expressing WT LEPRb in 6-well plates; cells serum-starved 4 h, treated with leptin (20 ng/ml) for 2 h or not treated, acid-washed (0.5 M NaCl, 0.2 M acetic acid, pH 2.3) to remove receptor-bound leptin; nonspecific binding subtracted

binding: binds
Substance: mouse leptin-secreted alkaline phosphatase (SEAP) chimeric protein (from UniProt P41160 22-167) (ligand)
